PubChem BioAssay AID1259308, NCATS, 2017
Here is a random part of about 59,000 reagents. In the full data, about 1,510 (2.6%) are marked active. 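Calls use total luciferase alone and ignore viability, so some active siRNAs may act by altering cell number.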 Reagents against one gene are numbered here. Not all columns of the deposit are shown. Reagent sequences are not shown.

- Screen: 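Genes whose loss raises luciferase production in HEK293 cells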 (primary screen)
- Cell system: human HEK293 embryonic kidney cells stably expressing firefly luciferase (HEK-CMV-Luc2-Hygro)
- Knock-down reagent: single siRNA against human genes, 0.8 pmol siRNA per well
- Timing: 72 h
- Measurement: 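Luciferase light (ONE-Glo) measured on one replicate plate set and viability (CellTiter-Glo) on the other, scaled to a negative control siRNA, with robust z-scores and luciferase per cell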
- Scale: total luciferase, z-score and total luciferase, % of control: higher = more reporter protein produced
- Hit rule: 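An siRNA counts as active if its total luciferase robust z-score exceeds 3; genes with two or more such siRNAs out of three were retested with fresh siRNAs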
- Calls: active = raised luciferase; inactive = no rise

| Target gene | siRNA no. | total luciferase, z-score | total luciferase, % of control | Outcome |
| --- | --- | --- | --- | --- |
| TMEM126B | 1 | 0.777 | 97.3 | inactive |
| TMEM126B | 2 | 0.68 | 95.4 | inactive |
| TMEM126B | 3 | 1.44 | 110 | inactive |
| TLE3 | 1 | -0.119 | 79.5 | inactive |
| TLE3 | 2 | -0.179 | 78.3 | inactive |
| TLE3 | 3 | 1.68 | 115 | inactive |
| ASGR1 | 1 | -0.303 | 75.9 | inactive |
| ASGR1 | 2 | -0.0873 | 80.2 | inactive |
| ASGR1 | 3 | -1.33 | 55.4 | inactive |
| ZNF705G | 1 | 1.14 | 105 | inactive |
| ZNF705G | 2 | 0.591 | 93.6 | inactive |
| ZNF705G | 3 | 2.92 | 140 | inactive |
| TAS1R3 | 1 | 0.479 | 91.4 | inactive |
| TAS1R3 | 2 | -1.4 | 54.1 | inactive |
| TAS1R3 | 3 | 1.94 | 121 | inactive |
| DUSP19 | 1 | 1.56 | 113 | inactive |
| DUSP19 | 2 | -0.359 | 74.7 | inactive |
| DUSP19 | 3 | 0.368 | 89.2 | inactive |
| RPL7AP27 | 1 | -2.76 | 27 | inactive |
| RPL7AP27 | 2 | -2.38 | 34.6 | inactive |
| RPL7AP27 | 3 | -2.85 | 25.2 | inactive |

Part of the list above in another layout:
Target gene	siRNA no.	total luciferase, z-score	total luciferase, % of control	Outcome
TMEM126B	2	0.68	95.4	inactive
TMEM126B	3	1.44	110	inactive
TLE3	1	-0.119	79.5	inactive
TLE3	2	-0.179	78.3	inactive

The results go on.
| Target gene | siRNA no. | total luciferase, z-score | total luciferase, % of control | Outcome |
| --- | --- | --- | --- | --- |
| OAS2 | 1 | 0.217 | 86.2 | inactive |
| OAS2 | 2 | -0.676 | 68.4 | inactive |
| OAS2 | 3 | 3.92 | 160 | active |
| HMBS | 1 | -0.943 | 63.1 | inactive |
| HMBS | 2 | 0.0821 | 83.5 | inactive |
| HMBS | 3 | 0.142 | 84.7 | inactive |
| RNF222 | 1 | -0.284 | 76.2 | inactive |
| RNF222 | 2 | 0.57 | 93.2 | inactive |
| RNF222 | 3 | -1.82 | 45.7 | inactive |
| CAPN1 | 1 | 2.78 | 137 | inactive |
| CAPN1 | 2 | -1.72 | 47.7 | inactive |
| CAPN1 | 3 | 1.45 | 111 | inactive |
| TARM1 | 1 | -2.16 | 38.9 | inactive |
| TARM1 | 2 | 0.838 | 98.5 | inactive |
| TARM1 | 3 | -1.6 | 50.1 | inactive |
| RPE65 | 1 | 0.315 | 88.1 | inactive |
| RPE65 | 2 | 1.23 | 106 | inactive |
| RPE65 | 3 | -0.183 | 78.3 | inactive |
| PRB3 | 1 | 0.771 | 97.2 | inactive |
| PRB3 | 2 | 0.982 | 101 | inactive |
| PRB3 | 3 | 1.46 | 111 | inactive |
| IRAK1BP1 | 1 | 0.345 | 88.8 | inactive |
| IRAK1BP1 | 2 | -1.07 | 60.6 | inactive |
| IRAK1BP1 | 3 | 0.418 | 90.2 | inactive |
| ICAM2 | 1 | 2.72 | 136 | inactive |
| ICAM2 | 2 | -0.0413 | 81.1 | inactive |
| ICAM2 | 3 | -0.126 | 79.4 | inactive |
| NDST4 | 1 | 2.22 | 126 | inactive |
| NDST4 | 2 | 0.424 | 90.3 | inactive |
| NDST4 | 3 | 0.051 | 82.9 | inactive |
| PLSCR1 | 1 | 0.241 | 86.7 | inactive |
| PLSCR1 | 2 | -1 | 61.9 | inactive |
| PLSCR1 | 3 | -0.0248 | 81.4 | inactive |
| OR10A6 | 1 | 0.387 | 89.6 | inactive |
| OR10A6 | 2 | -0.432 | 73.3 | inactive |
| OR10A6 | 3 | 1.75 | 117 | inactive |
